{"source": "patent US12569508B2", "about": "“Antimicrobial compositions and methods of use” (priority 2020, dated 2026)", "tested_on": "PAO1 GFP biofilm", "experiment": "Confocal microscopy of antibiotic penetration into flow cell biofilm", "format": "cell-based, P. aeruginosa", "conditions": "for area under the curve of fluorescent antibiotic (intensity versus penetration): 15 μg/mL; for biofilm penetration: three-day flow cell biofilm"}
{"smiles": "O=C(O)c1cn(C2CC2)c2cc(N3CCNCC3)c(F)cc2c1=O", "note": "[Cy5 ciprofloxacin]", "values": [{"measurement": "area under the curve of fluorescent antibiotic (intensity versus penetration)", "setting": "0.5 h after injection", "result": 746, "unit": "AU/μm^2"}, {"measurement": "area under the curve of fluorescent antibiotic (intensity versus penetration)", "setting": "1 h after injection", "result": 805, "unit": "AU/μm^2"}, {"measurement": "area under the curve of fluorescent antibiotic (intensity versus penetration)", "setting": "2 h after injection", "result": 1403, "unit": "AU/μm^2"}, {"measurement": "biofilm penetration", "result": "penetrated biofilm"}]}
{"smiles": "NC[C@H]1O[C@H](O[C@H]2[C@H](O)[C@@H](O[C@H]3O[C@H](CO)[C@@H](O)[C@H](N)[C@H]3O)[C@H](N)C[C@@H]2N)[C@H](N)C[C@@H]1O", "note": "[Cy5 TOB]", "values": [{"measurement": "area under the curve of fluorescent antibiotic (intensity versus penetration)", "setting": "0.5 h after injection", "result": 274, "unit": "AU/μm^2"}, {"measurement": "area under the curve of fluorescent antibiotic (intensity versus penetration)", "setting": "1 h after injection", "result": 459, "unit": "AU/μm^2"}, {"measurement": "area under the curve of fluorescent antibiotic (intensity versus penetration)", "setting": "2 h after injection", "result": 464, "unit": "AU/μm^2"}, {"measurement": "biofilm penetration", "result": "did not penetrate the biofilm"}]}
